“And” between values parts separate entries of the source, which are not always exact repeats. Equal values may be shown once. Further values from the same series stand in other lists.
Assay: CNS penetration: total and unbound drug concentrations in tumor regions, CSF and plasma (LC-MS/MS, equilibrium dialysis);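 further: drug levels in patient tumor tissue from contrast-enhancing and non-enhancing regions sampled under MRI-guided neuronavigation, with plasma and CSF drawn during surgical resection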
Settings: Level 0: Ribociclib 400mg QD + Everolimus 2.5mg QD, per patient

Ribociclib.CSF (sampling 7-9 Hours): 0.2038 and 0.0808
Ribociclib.Non-enhancing.tumor (sampling 7-9 Hours): 2.43 and 1.3724
Ribociclib.Plasma.conc (sampling 7-9 Hours): 0.475 and 0.3193
Ribociclib.Unbound.CSF (sampling 7-9 Hours): 0.1800 and 0.0705
Ribociclib.Unbound.enhancing (sampling 7-9 Hours): 0.331 and 0.3214
Ribociclib.CSF (sampling 23-25 Hours): 0.0361
Ribociclib.Non-enhancing.tumor (sampling 23-25 Hours): 1.6628
Ribociclib.Unbound.CSF (sampling 23-25 Hours): 0.0295
Compound: CN(C)C(=O)c1cc2cnc(Nc3ccc(N4CCNCC4)cn3)nc2n1C1CCCC1 [Ribociclib, ribociclib]

Reference: publication PMC13070491, “Single-nucleus transcriptomics, pharmacokinetics, and pharmacodynamics of CDK4/6 and mTOR inhibition in a Phase 0/1 trial of recurrent high-grade glioma” (Neuro-Oncology, 2025)
